Experimental findings from patent publication US20250127885A1 are described below.

Protein sequences, listed by entry. Tags and fused reporters are not part of them. Lines headed by an entry give the natural chain unless they say otherwise; changes in a name come on top.
UniProt P16809: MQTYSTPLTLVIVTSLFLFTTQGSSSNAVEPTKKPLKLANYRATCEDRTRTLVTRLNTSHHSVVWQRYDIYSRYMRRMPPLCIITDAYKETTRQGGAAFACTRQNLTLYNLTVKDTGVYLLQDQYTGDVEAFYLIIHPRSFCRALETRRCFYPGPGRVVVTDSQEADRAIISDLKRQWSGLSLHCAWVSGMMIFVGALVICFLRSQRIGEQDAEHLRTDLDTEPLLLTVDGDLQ

No constants are given. Whether binding was seen depends on the method and setting. Some binding calls cover weakened binding; strength is not graded here.

For the assay, the target named is soluble wild-type HCMV gp34 ectodomain (human cytomegalovirus (HCMV), strain AD169) (UniProt P16809). Kind of assay: ELISA, plate coated human Fc, FLAG-tagged WT gp34, anti-FLAG (M2)-HRP. A general note: In an ELISA, binding on a coated surface is turned into a signal by an enzyme label.

As for “human IgG1 Fc (no Fab arms) (from UniProt P0DOX5 230-449)”, the binding result was “binds”.
